At least one structure is not confirmed: it was looked up by name or label, or the drawing left a doubt.
Tested on: DNFB contact allergy
Assay: DNFB allergy (swine), topical administration
Type: in vivo
Settings: 5% preparation (solution in 15% dimethylformamide, 42.5% ethanol, 42.5% propylenglycol), applied topically 4 times

SMILES: C[C@@H]1C[C@H]2[C@@H]3CCC4=CC(=O)C=C[C@]4(C)[C@@]3(F)[C@@H](O)C[C@]2(C)[C@@]1(O)C(=O)CO [Dexamethasone, reference compound]
- clinical evaluation of the test sites / activity: only weak activity

— patent US20050059694A1, “New use of 11.28-dioxa-4-azatricyclo [22.3.1.04,9] octacos-18-ene derivatives and pharmaceutical compositions containing them” (Fujisawa Pharmaceutical Co., Ltd., priority 1987, published 2005)
